From the supplement of paper PMC3334620
The full ranking holds about 33,000 sequences; the median of “E-score (-0.5 to 0.5)” is about -0.0014, and the highest 2% start at about 0.25. Some of the results follow.

Each sequence was assayed against T1, Cad1 (UniProt P24813) (assay: PBM E-score (8-mer binding enrichment) (E-score (-0.5 to 0.5)); higher = stronger / more preferred TF binding). Details: protein concentration: 100 nM; construct: GST-full length.
T1 sequence: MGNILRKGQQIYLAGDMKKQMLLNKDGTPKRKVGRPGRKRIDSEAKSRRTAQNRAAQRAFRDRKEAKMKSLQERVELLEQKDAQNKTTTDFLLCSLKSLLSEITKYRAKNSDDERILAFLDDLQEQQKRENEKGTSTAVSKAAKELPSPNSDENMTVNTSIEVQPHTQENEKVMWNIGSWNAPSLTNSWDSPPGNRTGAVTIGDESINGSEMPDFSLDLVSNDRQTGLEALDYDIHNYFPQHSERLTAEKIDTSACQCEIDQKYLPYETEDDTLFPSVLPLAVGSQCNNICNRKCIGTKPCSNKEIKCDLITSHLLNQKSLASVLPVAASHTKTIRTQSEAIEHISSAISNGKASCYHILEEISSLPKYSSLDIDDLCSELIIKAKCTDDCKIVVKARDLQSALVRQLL
Outline: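 Using PURExpress in vitro transcription/translation, GST-tagged yeast transcription factors were made in full-length or DNA-binding-domain form. These were applied at about 100-200 nM to double-stranded universal all-10-mer Agilent arrays, and bound protein was detected with fluorescent anti-GST. Scans were normalised with masliner before the Universal PBM Analysis Suite assigned E-scores to ungapped eight-base words pooled with their reverse complements.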

| Sequence | PBM E-score |
| --- | --- |
| AATGGTGG | -0.068 |
| AGATCGGG | -0.173 |
| GCGTCGGA | 0.144 |
| ATAAAAGA | -0.0385 |
| GCTCTAAA | 0.0281 |
| CCTATTCC | -0.0703 |
| AGGATCCG | -0.214 |
| ATGTCAAC | 0.086 |
| TAAACACA | 0.215 |
| ACAAAGCC | 0.0605 |
| AGGTTCGA | 0.101 |
| AATGATTG | 0.0196 |
| CGGTTTAG | 0.025 |
| AGCAGAAT | 0.0895 |
| GGGTGACA | -0.0352 |
| TCCAGCAA | 0.0151 |
| AGTCGGAA | 0.0204 |
| CTTTTTTA | 0.109 |
| CAACATAG | -0.073 |
| CAAACCTA | 0.0759 |
| AGCATTCC | 0.07 |
| TGATATCA | -0.0316 |
| ATTATGCG | 0.209 |
| ATAGGATC | 0.0502 |
| ACTGTGAG | 0.0681 |

| Sequence | PBM E-score |
| --- | --- |
| GCTTACCA | 0.255 |
| CTATCACA | 0.192 |
| ACCTACTA | 0.11 |
| TTACCGAA | 0.173 |
| GCGTCTCA | -0.0901 |
| ACCGCCCA | -0.242 |
| AAGAGACA | 0.107 |
| AACAGGGC | 0.0552 |
| CCGGGGTA | -0.148 |
| CCAGGGGG | -0.433 |
| AATGTGGG | -0.0491 |
| ACTGGCCC | -0.192 |
| GCGAACAA | 0.275 |
| CTCAAATC | -0.117 |
| AACCAAAG | 0.0578 |
| CCACGGCC | -0.168 |
| CGGGCATA | -0.0874 |
| AAGCTGCG | 0.00929 |
| TAACCGGA | 0.0582 |
| CACTACAC | 0.028 |
| CGTTTGGA | -0.128 |
| CTTTGGCC | 0.117 |
| ACCTTGAT | 0.0201 |
| TGATGTAA | 0.137 |
| GTGGTTCA | 0.232 |

| Sequence | PBM E-score |
| --- | --- |
| AATGAGAC | 0.0131 |
| TCAACCAA | -0.0303 |
| ATTACGTA | 0.392 |
| GTTAGAAC | 0.185 |
| AGCTCGGG | -0.0691 |
| GAGTAAAC | 0.00921 |
| AGTACCAG | 0.0586 |
| ACCTCTGC | -0.0678 |
| GGACGTGA | -0.0466 |
| AGTCTGTG | -0.0498 |
| AATGCTTC | 0.00521 |
| AATCAGTA | 0.135 |
| GCGATGTA | 0.0688 |
| CTAAAGAC | -0.0173 |
| CCAAGACC | -0.0342 |
| ATCGTTCA | 0.0567 |
| AGATATAA | 0.0662 |
| CTTTTTCA | 0.0128 |
| ACTGATTG | 0.0651 |
| AGGGAACG | 0.00514 |
| AACCTATT | -0.0253 |
| CCCTAAGA | -0.203 |
| CCATGATC | -0.0206 |
| ATCCACCC | -0.17 |
| ACCTGGCG | -0.24 |

| Sequence | PBM E-score |
| --- | --- |
| TCAGTGAA | 0.0582 |
| GCTAGGGA | -0.0885 |
| GGCCTAAC | 0.108 |
| CAACTGCC | 0.0955 |
| ATTCTGGC | -0.00565 |
| AAAGAAAC | 0.0847 |
| GATCCAGC | -0.157 |
| AAAAATCC | 0.126 |
| CCACGTAC | -0.223 |
| CAGCGAGA | -0.0281 |
| ATGAGCAC | -0.109 |
| ACGTGAAG | -0.0195 |
| CGGGGAAG | -0.262 |
| AGCTATAA | -0.143 |
| AGCCTTAA | 0.0172 |
| AGGAGATC | -0.065 |
| AACAAGTG | -0.072 |
| AAGGGTAC | -0.163 |
| GTGGAGCA | -0.193 |
| AAGCATTG | 0.0841 |
| GAACGGAC | -0.0974 |
| CGACCCAC | -0.0108 |
| AGGAAGCC | -0.149 |
| AATCTTCA | 0.224 |
| AGTATTCC | 0.0466 |

Exported as tab-separated lines: entries from further up
Sequence	PBM E-score
ATTATGCG	0.209
ATAGGATC	0.0502
ACTGTGAG	0.0681
GCTTACCA	0.255

(listing goes on)

| Sequence | PBM E-score |
| --- | --- |
| GCTCCGAA | 0.0968 |
| CAGCACTA | 0.0574 |
| AAGTATTG | 0.0607 |
| GGAGCCGA | -0.18 |
| CCCAGTTC | 0.064 |
| TATTTGCA | 0.128 |
| TGTCCACA | 0.128 |
| ACACTGAT | 0.0356 |
| GTGTTTGA | 0.125 |
| CAAAGTCA | 0.0198 |
| AGATGCAC | -0.184 |
| CTATTCGA | 0.0291 |
| CTTGCCGC | -0.145 |
| GAAGCTTC | 0.182 |
| AAAAATGC | 0.0411 |
| GAATTCAA | 0.1 |
| CCGAGGTA | -0.0142 |
| GGCATCCA | -0.263 |
| GGTTAGCA | -0.0859 |
| CTACGCAC | -0.134 |
| ATTACACC | 0.108 |
| CGTTACAC | -0.0163 |
| GCGTTTCA | -0.017 |
| CCCTTGGA | 0.00683 |
| CCAGCGTA | -0.0528 |

| Sequence | PBM E-score |
| --- | --- |
| GGTGTCCA | 0.136 |
| ACTGAAAG | 0.135 |
| ACTATTTA | 0.139 |
| CGATCGAA | 0.106 |
| ATGGCGCA | 0.0449 |
| AATCCGCG | 0.13 |
| CCTACCCG | -0.0239 |
| GAGTAGTA | 0.0165 |
| CCAGTACC | -0.0701 |
| CACATAGC | -0.0297 |
| AGCCGGGG | -0.193 |
| CAATGGCA | 0.0467 |
| AGCTATGC | -0.18 |
| AATTCTGT | 0.0871 |
| GCCGAACC | 0.076 |
| GGTGGGAC | -0.253 |
| AACAATTA | 0.192 |
| AACTATCC | -0.154 |
| CTACTTAC | -0.0322 |
| CATCTGAC | -0.226 |
| CACTCGGA | 0.189 |
| ACCCCGCT | -0.074 |
| TACCTGCA | -0.0932 |
| ACTCCTGA | 0.00881 |
| AACCACGT | 0.0327 |

Quoted at random: 6 entries already listed.

| Sequence | PBM E-score |
| --- | --- |
| ACTCCTGA | 0.00881 |
| CTAAAGAC | -0.0173 |
| CAAACCTA | 0.0759 |
| AATCAGTA | 0.135 |
| AGATATAA | 0.0662 |
| CCCTAAGA | -0.203 |

Next part:

| Sequence | PBM E-score |
| --- | --- |
| GATAGATC | 0.0641 |
| CCAGTTGA | -0.138 |
| GAGAAAGC | 0.0827 |
| CCGCTACC | -0.072 |
| AGACACTA | 0.15 |
| GATAGGGA | -0.201 |
| ACCCAAAT | 0.0208 |
| AATCATAA | 0.146 |
| TAAGTGCA | 0.109 |
| ATGTGGTC | 0.0547 |
| GGATGCTA | -0.0527 |
| ATGTCCCA | -0.242 |
| ATTCCAAG | 0.107 |
| AGTCGCCG | 0.0268 |
| AAGTTGTC | 0.0742 |
| CAGCTCGA | 0.0283 |
| CTGTTCCC | -0.223 |
| CGGGGATC | -0.22 |
| GAAATCAC | 0.166 |
| AAAATTCT | -0.00425 |
| AGTACACG | -0.0321 |
| GGTAACAA | 0.261 |
